# Data published in patent publication EP0417819A1 (AKZO N.V., priority 1989, dated 1991).
# Experiment: general procedure: solution-phase peptide synthesis; DCC/HOBt; azide method
# Conditions: coupling step, acetate (ion exchanger in the acetate form)
row,Substance,step yield
1,Boc-TSE(OtBu)K(Ac)SQTPLV-OH,44.8%
2,Boc-Thr-Ser-Glu(OtBu)-Lys(Ac)-Ser-Gln-Thr-OBZ1,70.4%
3,Cbz-E(OtBu)TPLVTL-OtBu,"76,7%"
4,Cbz-PLVTL-OtBu,80%
5,Cbz-SE(OtBu)TPLVTL-OtBu,48%
6,Cbz-SQTPLV-OtBu,48.0%
7,Cbz-SQTPLV[dT][Cha]-OtBu,67.9%
8,Cbz-TPLVTL-OtBu,93%
9,Cbz-TSE(OtBu)K(Ac)-OMe,84.6%
10,Cbz-TSE(OtBu)[Nle]-OMe,89.1%
11,H-Δ Pro-Leu-Val-Thr-Leu-OtBu,73.5%

# Same assay, conditions: coupling step, acetate (ion exchanger in the acetate form); run 1
row,Substance,step yield
1,Boc-TPE(OtBu)K(Ac)-OMe,68.2%

# Same assay, conditions: coupling step, acetate (ion exchanger in the acetate form); run 2
row,Substance,step yield
1,Boc-TPE(OtBu)K(Ac)-OMe,79.3%

# Same assay, conditions: late stage modification step, acetate (ion exchanger in the acetate form)
row,Substance,step yield
1,Cbz-SQTPLV-OH,84.0%
2,Cbz-TSE(OtBu)K(Ac)-NHNH2,67.8%
3,Cbz-TSE(OtBu)[Nle]-NHNH2,64.1%

# Same assay, conditions: late stage modification step, acetate (ion exchanger in the acetate form); run 1
row,Substance,step yield
1,Boc-TPE(OtBu)K(Ac)-NHNH2,96.7%

# Same assay, conditions: late stage modification step, acetate (ion exchanger in the acetate form); run 2
row,Substance,step yield
1,Boc-TPE(OtBu)K(Ac)-NHNH2,50%

# Square brackets hold non-standard residues; d marks the D form. * marks the point of attachment. Cha = N[C@@H](CC1CCCCC1)C(=O)O; Nle = CCCC[C@H](N)C(=O)O; Cbz = O=C(OCc1ccccc1)*; Boc = CC(C)(C)OC(=O)*; OtBu = CC(C)(C)O*; NHNH2 = NN*
